Results as given in publication PMC6269467.
These are yes or no findings as the source states them, for the method shown. Some entries that bind do so weakly or less than the wild type.

Target: αN-catenin actin-binding domain with the helix-1 mutation (αNcat-ABD-H1) (mouse) (UniProt Q61301)
Experiment: NMR titration; 1H-15N HSQC spectra of 15N-αNcat-ABD-H1 at sample concentrations from 0.05 mM to 1.60 mM; self-association; both purified

- binding: binds weakly
B1: αN-catenin actin-binding domain with the helix-1 mutation (αNcat-ABD-H1) (domain or fragment, UniProt Q61301-2 651-905)
chain: SRTSVQTEDDQLIAGQSAGSGSAQLPQEEKAKIAEQVEIFHQEKSKLDAEVAKWDDSGNDIIVLAKQMCMIMMEMTDFTRGKGPLKNTSDVINAAKKIAEAGSRMDKLARAVADQCPDSACKQDLLAYLQRIALYCHQLNICSKVKAEVQNLGGELIVSGLDSATSLIQAAKNLMNAVVLTVKASYVASTKYQKVYGTAAVNSPVVSWKMKAPEKKPLVKREKPEEFQTRVRRGSQKKHISPVQALSEFKAMDSF
